No constants are given. Whether binding was seen depends on the method and setting. In cells and extracts the contact can be indirect. Binding can be weak; no strength is given.
Target: HA-RI332, C-terminally truncated form of ribophorin-I with an HA epitope
Assay: co-IP

B1: OS9 (protein, UniProt Q13438 26-667)
chain: GGVGSLNLEELSEMRYGIEILPLPVMGGQSQSSDVVIVSSKYKQRYECRLPAGAIHFQREREEETPAYQGPGIPELLSPMRDAPCLLKTKDWWTYEFCYGRHIQQYHMEDSEIKGEVLYLGYYQSAFDWDDETAKASKQHRLKRYHSQTYGNGSKCDLNGRPREAEVRFLCDEGAGISGDYIDRVDEPLSCSYVLTIRTPRLCPHPLLRPPPSAAPQAILCHPSLQPEEYMAYVQRQADSKQYGDKIIEELQDLGPQVWSETKSGVAPQKMAGASPTKDDSKDSDFWKMLNEPEDQAPGGEEVPAEEQDPSPEAADSASGAPNDFQNNVQVKVIRSPADLIRFIEELKGGTKKGKPNIGQEQPVDDAAEVPQREPEKERGDPERQREMEEEEDEDEDEDEDEDERQLLGEFEKELEGILLPSDRDRLRSEVKAGMERELENIIQETEKELDPDGLKKESERDRAMLALTSTLNKLIKRLEEKQSPELVKKHKKKRVVPKKPPPSPQPTEEDPEHRVRVRVTKLRLGGPNQDLTVLEMKRENPQLKQIEGLVKELLEREGLTAAGKIEIKIVRPWAEGTEEGARWLTDEDTRNLKEIFFNILVPGAEEAQKERQRQKELESNYRRVWGSPGGEGTGDLDEFDF
binding: binds

— PMC3066133
